Data reported in the supplement of paper PMC6411743.
± gives the standard deviation of the averaged measurements. The list shows a part of the results, in another mix than the full data.

Assays:
Assay in all cases: NP40-soluble protein abundance relative to vehicle (solubility fold change) (ratio); higher = more soluble protein in presence of AMP-PNP
[1] = target: T1, UniProt P52594 and related entries
T1 sequence (whole entry): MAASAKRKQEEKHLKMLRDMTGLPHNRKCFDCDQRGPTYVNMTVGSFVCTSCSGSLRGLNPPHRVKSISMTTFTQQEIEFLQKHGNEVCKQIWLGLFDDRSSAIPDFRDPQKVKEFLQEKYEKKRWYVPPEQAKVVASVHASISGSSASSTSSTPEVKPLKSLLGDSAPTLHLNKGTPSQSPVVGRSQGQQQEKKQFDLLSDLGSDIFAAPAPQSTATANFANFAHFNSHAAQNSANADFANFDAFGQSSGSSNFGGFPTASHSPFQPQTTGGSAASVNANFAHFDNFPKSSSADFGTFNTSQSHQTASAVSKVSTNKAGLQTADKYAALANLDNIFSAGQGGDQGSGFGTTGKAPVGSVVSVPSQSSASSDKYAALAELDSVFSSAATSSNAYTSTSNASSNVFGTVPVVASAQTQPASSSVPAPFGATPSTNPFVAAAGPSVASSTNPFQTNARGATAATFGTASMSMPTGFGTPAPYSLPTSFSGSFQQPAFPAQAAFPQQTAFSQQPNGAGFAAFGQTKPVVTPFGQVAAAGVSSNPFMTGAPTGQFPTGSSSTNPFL
How it was run: (§1)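 Crude Jurkat lysate, prepared by Dounce homogenisation, was exposed to eight concentrations from 0.1 to 10 mM for 10 min at room temperature and then 3 min at 37 °C. Solubilisation used 0.8% NP40 with benzonase for 60 min at 4 °C, followed by ultracentrifugation and TMT labelling of the supernatant for LC-MS/MS. After vsn normalisation of intensities, each value is the fold change against the detergent-processed vehicle within each replicate, across three independent experiments.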

[2] = target: T2, UniProt P52757 and related entries
T2 sequence (whole entry): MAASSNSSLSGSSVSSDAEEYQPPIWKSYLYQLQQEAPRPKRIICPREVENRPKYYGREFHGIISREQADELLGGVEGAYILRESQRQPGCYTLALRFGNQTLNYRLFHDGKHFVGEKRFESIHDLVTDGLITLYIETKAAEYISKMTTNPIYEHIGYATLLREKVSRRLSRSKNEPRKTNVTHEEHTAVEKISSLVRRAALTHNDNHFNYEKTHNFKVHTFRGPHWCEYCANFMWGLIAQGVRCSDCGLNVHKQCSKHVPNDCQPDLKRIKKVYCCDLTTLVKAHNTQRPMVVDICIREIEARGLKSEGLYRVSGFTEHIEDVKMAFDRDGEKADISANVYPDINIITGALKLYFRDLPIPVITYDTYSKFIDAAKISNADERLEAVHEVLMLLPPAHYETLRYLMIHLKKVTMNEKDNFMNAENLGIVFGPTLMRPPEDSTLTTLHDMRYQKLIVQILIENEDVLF
How it was run: as §1

[3] = target: T3, UniProt P54725 and related entries
T3 sequence (whole entry): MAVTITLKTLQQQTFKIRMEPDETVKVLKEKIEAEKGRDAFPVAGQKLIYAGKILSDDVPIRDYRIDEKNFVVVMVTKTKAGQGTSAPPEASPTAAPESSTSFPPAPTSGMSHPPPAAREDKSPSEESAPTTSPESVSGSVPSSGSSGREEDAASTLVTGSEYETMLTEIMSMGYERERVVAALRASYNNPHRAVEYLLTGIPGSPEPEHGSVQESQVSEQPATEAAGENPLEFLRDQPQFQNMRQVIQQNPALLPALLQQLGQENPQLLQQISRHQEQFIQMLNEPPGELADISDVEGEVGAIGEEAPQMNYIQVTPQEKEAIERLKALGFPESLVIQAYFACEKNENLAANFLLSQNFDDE
How it was run: as §1

[4] = target: T4, UniProt P55036 and related entries
T4 sequence (whole entry): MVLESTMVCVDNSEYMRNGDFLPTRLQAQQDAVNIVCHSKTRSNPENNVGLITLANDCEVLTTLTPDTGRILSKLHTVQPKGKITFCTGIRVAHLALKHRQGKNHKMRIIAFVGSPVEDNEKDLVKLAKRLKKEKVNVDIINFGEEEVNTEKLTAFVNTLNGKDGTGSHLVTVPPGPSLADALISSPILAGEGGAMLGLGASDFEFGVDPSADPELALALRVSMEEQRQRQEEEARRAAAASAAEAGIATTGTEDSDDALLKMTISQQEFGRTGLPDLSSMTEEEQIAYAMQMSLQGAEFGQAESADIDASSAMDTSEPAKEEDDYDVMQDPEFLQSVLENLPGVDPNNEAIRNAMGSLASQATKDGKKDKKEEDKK
How it was run: as §1

[5] = target: T5, UniProt P55210 and related entries
T5 sequence (whole entry): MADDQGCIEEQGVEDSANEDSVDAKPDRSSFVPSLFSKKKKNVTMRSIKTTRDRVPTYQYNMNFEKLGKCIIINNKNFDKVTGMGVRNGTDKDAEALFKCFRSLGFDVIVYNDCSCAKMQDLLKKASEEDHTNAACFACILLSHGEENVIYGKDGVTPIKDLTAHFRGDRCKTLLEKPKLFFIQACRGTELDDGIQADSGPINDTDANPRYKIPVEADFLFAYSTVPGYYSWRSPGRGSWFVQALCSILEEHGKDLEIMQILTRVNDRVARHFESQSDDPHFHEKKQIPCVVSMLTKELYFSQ
How it was run: as §1

WAS = target: T6, WAS (UniProt P42768)
T6 sequence (whole entry): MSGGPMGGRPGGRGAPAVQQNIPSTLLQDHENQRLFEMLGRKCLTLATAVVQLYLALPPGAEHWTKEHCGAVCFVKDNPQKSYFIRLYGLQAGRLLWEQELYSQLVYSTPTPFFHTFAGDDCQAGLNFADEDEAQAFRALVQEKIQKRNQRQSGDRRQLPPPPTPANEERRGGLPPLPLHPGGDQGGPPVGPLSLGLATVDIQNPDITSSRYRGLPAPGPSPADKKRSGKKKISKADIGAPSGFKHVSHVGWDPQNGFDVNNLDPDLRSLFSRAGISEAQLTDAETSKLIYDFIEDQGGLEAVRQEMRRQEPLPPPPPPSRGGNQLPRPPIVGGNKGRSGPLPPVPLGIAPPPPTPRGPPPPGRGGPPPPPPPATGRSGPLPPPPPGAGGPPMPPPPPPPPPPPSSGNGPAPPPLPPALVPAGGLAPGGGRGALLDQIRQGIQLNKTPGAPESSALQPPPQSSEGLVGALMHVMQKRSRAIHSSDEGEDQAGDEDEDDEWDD
How it was run: as §1

Nc1ncnc2c1ncn2[C@@H]1O[C@H](COP(=O)(O)OP(=O)(O)NP(=O)(O)O)[C@@H](O)[C@H]1O [adenylyl imidodiphosphate]
NP40-soluble protein abundance ([1]; concentration: 8mM): 1.03 ± 0.062
NP40-soluble protein abundance ([1]; concentration: 10mM): 1.03 ± 0.068
NP40-soluble protein abundance ([2]; concentration: 1mM): 1.02 ± 0.023
NP40-soluble protein abundance ([2]; concentration: 2mM): 0.988 ± 0.048
NP40-soluble protein abundance ([2]; concentration: 4mM): 0.99 ± 0.056
NP40-soluble protein abundance ([2]; concentration: 6mM): 1.001 ± 0.0063
NP40-soluble protein abundance ([2]; concentration: 8mM): 1.01 ± 0.025
NP40-soluble protein abundance ([2]; concentration: 10mM): 0.992 ± 0.037
NP40-soluble protein abundance ([3]; concentration: 1mM): 1.03 ± 0.016
NP40-soluble protein abundance ([3]; concentration: 2mM): 1.09 ± 0.072
NP40-soluble protein abundance ([3]; concentration: 4mM): 0.975 ± 0.034
NP40-soluble protein abundance ([3]; concentration: 6mM): 0.988 ± 0.025
NP40-soluble protein abundance ([3]; concentration: 8mM): 0.974 ± 0.017
NP40-soluble protein abundance ([3]; concentration: 10mM): 0.957 ± 0.058
NP40-soluble protein abundance ([4]; concentration: 1mM): 0.981 ± 0.032
NP40-soluble protein abundance ([4]; concentration: 2mM): 0.989 ± 0.043
NP40-soluble protein abundance ([4]; concentration: 4mM): 0.968 ± 0.046
NP40-soluble protein abundance ([4]; concentration: 6mM): 0.963 ± 0.08
NP40-soluble protein abundance ([4]; concentration: 8mM): 0.938 ± 0.05
NP40-soluble protein abundance ([4]; concentration: 10mM): 0.97 ± 0.064
NP40-soluble protein abundance ([5]; concentration: 1mM): 0.991 ± 0.026
NP40-soluble protein abundance ([5]; concentration: 2mM): 0.989 ± 0.022
NP40-soluble protein abundance ([5]; concentration: 4mM): 0.96 ± 0.02
NP40-soluble protein abundance ([5]; concentration: 6mM): 0.987 ± 0.051
NP40-soluble protein abundance ([5]; concentration: 8mM): 0.982 ± 0.057
NP40-soluble protein abundance ([5]; concentration: 10mM): 0.984 ± 0.054
NP40-soluble protein abundance (WAS; concentration: 1mM): 0.971 ± 0.04
NP40-soluble protein abundance (WAS; concentration: 2mM): 1.03 ± 0.049
NP40-soluble protein abundance (WAS; concentration: 4mM): 0.957 ± 0.065
NP40-soluble protein abundance (WAS; concentration: 6mM): 0.932 ± 0.036
NP40-soluble protein abundance (WAS; concentration: 8mM): 0.907 ± 0.022
NP40-soluble protein abundance (WAS; concentration: 10mM): 0.924 ± 0.049
